Paper PMC13482807
No constants are given. Whether binding was seen depends on the method and setting. Binding seen in cells or lysates may run through a third protein. A result given as binding can be weak or reduced; the word gives no strength.

Molecular target: T1, Kibra (Kib) (Drosophila) (UniProt Q9VFG8)
T1 sequence: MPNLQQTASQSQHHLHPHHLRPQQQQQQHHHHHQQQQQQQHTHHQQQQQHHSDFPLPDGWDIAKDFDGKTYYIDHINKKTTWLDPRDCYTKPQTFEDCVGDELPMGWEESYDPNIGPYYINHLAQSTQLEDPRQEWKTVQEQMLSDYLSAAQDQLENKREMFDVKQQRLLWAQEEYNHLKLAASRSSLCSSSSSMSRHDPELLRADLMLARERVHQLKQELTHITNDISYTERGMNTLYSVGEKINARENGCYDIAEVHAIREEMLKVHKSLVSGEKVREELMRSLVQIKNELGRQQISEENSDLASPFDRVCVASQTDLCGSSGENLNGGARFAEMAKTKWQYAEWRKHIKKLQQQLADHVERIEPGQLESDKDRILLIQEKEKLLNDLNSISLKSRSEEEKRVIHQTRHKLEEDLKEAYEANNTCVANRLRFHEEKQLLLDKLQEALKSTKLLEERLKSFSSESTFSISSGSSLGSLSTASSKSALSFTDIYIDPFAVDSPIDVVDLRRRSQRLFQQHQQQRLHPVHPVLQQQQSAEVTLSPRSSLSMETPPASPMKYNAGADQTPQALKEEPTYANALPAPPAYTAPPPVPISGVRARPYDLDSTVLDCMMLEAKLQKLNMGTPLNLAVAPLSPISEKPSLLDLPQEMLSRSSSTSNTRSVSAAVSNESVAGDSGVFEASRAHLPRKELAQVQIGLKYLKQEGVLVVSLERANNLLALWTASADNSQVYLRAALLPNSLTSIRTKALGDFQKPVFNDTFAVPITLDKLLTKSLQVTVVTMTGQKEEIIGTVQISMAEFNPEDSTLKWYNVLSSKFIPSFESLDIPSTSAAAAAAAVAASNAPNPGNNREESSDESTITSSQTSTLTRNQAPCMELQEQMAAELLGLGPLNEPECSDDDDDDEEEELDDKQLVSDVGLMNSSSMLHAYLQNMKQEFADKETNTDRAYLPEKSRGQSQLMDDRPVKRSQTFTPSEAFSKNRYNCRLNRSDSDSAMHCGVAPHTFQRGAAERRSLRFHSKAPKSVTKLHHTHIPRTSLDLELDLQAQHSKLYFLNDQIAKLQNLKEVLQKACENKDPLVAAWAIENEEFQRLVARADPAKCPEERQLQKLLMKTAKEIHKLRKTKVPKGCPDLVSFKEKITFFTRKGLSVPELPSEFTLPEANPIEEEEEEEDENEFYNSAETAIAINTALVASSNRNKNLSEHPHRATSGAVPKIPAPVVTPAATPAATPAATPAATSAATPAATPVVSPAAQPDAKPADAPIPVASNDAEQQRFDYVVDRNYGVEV
Experiment: co-IP; S2 cells transfected with the tagged constructs; lysis in 50 mM Tris pH 7.5, 150 mM NaCl, 1% Triton X-100, 10% glycerol, 1 mM EDTA with phosphatase and protease inhibitors; FLAG-tagged proteins on anti-FLAG M2 agarose 1-2 h at 4 °C, eluted with 3x FLAG peptide; immunoblot (Figures EV3G,H, EV5C-E, 5B-D)

Well-rounded (Wrd), PP2A B' regulatory subunit (Drosophila)
binding: binds
